Experimental data: paper PMC12255702
Where two headings read alike, the source gives them in different places. These are yes or no findings as the source states them, for the method shown. Binding seen in cells or lysates may run through a third protein. Some binding calls cover weakened binding; strength is not graded here. For part of these data: Sequences can lack the tags named with a protein.

Sequences of proteins named here, by UniProt entry; tags and fusion partners are left off.
UniProt Q96BT3: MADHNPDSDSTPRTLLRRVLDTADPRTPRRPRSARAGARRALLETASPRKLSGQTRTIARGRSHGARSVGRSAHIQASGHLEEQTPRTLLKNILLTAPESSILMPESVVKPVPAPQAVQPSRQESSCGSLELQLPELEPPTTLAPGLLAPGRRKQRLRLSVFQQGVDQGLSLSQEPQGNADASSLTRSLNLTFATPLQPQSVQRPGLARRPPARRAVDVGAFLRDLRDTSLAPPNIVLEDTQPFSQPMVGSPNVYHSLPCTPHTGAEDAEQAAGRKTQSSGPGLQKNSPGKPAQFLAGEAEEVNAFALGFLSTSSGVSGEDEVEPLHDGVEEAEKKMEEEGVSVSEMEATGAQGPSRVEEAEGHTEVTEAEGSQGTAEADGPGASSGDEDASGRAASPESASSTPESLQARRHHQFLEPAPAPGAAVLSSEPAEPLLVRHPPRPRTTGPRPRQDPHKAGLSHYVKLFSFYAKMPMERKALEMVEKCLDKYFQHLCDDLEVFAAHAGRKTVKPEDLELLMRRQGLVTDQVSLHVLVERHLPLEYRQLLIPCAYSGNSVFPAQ

Legend:
[1] = molecular target: T1, Myc-GCLC middle fragment, amino acids 213-424 (UniProt P48506); test: co-IP; Flag-tagged CENPT (full length or fragments) and Myc-tagged GCLC (full length or fragments) co-expressed in 293T cells; Co-IP and Western blot
T1 sequence: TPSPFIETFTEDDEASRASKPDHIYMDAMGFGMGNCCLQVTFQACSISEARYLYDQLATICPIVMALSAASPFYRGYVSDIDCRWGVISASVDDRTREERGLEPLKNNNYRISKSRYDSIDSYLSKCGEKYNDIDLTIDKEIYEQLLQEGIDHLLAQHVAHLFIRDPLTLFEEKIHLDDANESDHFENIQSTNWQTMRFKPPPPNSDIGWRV

[2] = molecular target: T2, endogenous GCLC (human (endogenous in RCC cell lines)) (UniProt P48506); test: co-IP; RCC cells with overexpression of CENPT; GCLM bound to GCLC compared
T2 sequence: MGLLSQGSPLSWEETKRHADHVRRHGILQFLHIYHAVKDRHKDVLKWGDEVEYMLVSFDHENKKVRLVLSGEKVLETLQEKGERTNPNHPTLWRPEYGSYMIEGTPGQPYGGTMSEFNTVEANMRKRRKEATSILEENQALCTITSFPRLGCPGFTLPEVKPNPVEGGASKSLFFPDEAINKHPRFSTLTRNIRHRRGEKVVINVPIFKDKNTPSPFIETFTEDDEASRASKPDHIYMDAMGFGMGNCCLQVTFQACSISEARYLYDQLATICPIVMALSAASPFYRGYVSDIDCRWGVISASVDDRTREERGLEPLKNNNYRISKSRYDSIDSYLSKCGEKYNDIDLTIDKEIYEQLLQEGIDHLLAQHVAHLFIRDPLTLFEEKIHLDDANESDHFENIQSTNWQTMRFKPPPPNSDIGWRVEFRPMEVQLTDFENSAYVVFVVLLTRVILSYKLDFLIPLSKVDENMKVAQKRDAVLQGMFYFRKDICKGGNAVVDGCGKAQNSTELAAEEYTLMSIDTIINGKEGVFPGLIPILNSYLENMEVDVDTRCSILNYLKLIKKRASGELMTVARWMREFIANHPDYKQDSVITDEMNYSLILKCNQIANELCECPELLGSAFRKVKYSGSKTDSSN

[3] = molecular target: Flag-tagged Centromere Protein T (CENPT), full length (UniProt Q96BT3); test: co-IP; Flag-tagged CENPT (full length or fragments) and Myc-tagged GCLC (full length or fragments) co-expressed in 293T cells; Co-IP and Western blot
[4] = molecular target: endogenous CENPT (human (endogenous in RCC cell lines)) (UniProt Q96BT3); test: co-IP; endogenous proteins in RCC cells; Co-IP and Western blot
[5] = molecular target: GST-CENPT (UniProt Q96BT3); test: pull-down; in vitro; GST-CENPT captured by glutathione-resin, HIS-GCLC probed by western blotting; the methods describe His-tagged bait on Ni-NTA beads and prey in cell lysates
[6] = molecular target: T2, endogenous GCLC (human (endogenous in RCC cell lines)); test: co-IP; RCC cells with overexpression of CENPT; GCLM bound to GCLC compared; remark: listed apart in the source

“Flag-tagged Centromere Protein T (CENPT), full length (from UniProt Q96BT3 1-561)” was tested, and the binding [1] was “binds”.

In the case of “CENPT overexpressed in RCC cells (from UniProt Q96BT3 1-561)”, the binding [2] is reported as “binds”.

B1: Myc-tagged gamma-glutamyl-cysteine ligase catalytic subunit (GCLC), full length (protein, UniProt P48506 1-637)
chain: MGLLSQGSPLSWEETKRHADHVRRHGILQFLHIYHAVKDRHKDVLKWGDEVEYMLVSFDHENKKVRLVLSGEKVLETLQEKGERTNPNHPTLWRPEYGSYMIEGTPGQPYGGTMSEFNTVEANMRKRRKEATSILEENQALCTITSFPRLGCPGFTLPEVKPNPVEGGASKSLFFPDEAINKHPRFSTLTRNIRHRRGEKVVINVPIFKDKNTPSPFIETFTEDDEASRASKPDHIYMDAMGFGMGNCCLQVTFQACSISEARYLYDQLATICPIVMALSAASPFYRGYVSDIDCRWGVISASVDDRTREERGLEPLKNNNYRISKSRYDSIDSYLSKCGEKYNDIDLTIDKEIYEQLLQEGIDHLLAQHVAHLFIRDPLTLFEEKIHLDDANESDHFENIQSTNWQTMRFKPPPPNSDIGWRVEFRPMEVQLTDFENSAYVVFVVLLTRVILSYKLDFLIPLSKVDENMKVAQKRDAVLQGMFYFRKDICKGGNAVVDGCGKAQNSTELAAEEYTLMSIDTIINGKEGVFPGLIPILNSYLENMEVDVDTRCSILNYLKLIKKRASGELMTVARWMREFIANHPDYKQDSVITDEMNYSLILKCNQIANELCECPELLGSAFRKVKYSGSKTDSSN
With B1 the binding [3] was “binds”.

B2: endogenous GCLC (protein, UniProt P48506 1-637)
chain: MGLLSQGSPLSWEETKRHADHVRRHGILQFLHIYHAVKDRHKDVLKWGDEVEYMLVSFDHENKKVRLVLSGEKVLETLQEKGERTNPNHPTLWRPEYGSYMIEGTPGQPYGGTMSEFNTVEANMRKRRKEATSILEENQALCTITSFPRLGCPGFTLPEVKPNPVEGGASKSLFFPDEAINKHPRFSTLTRNIRHRRGEKVVINVPIFKDKNTPSPFIETFTEDDEASRASKPDHIYMDAMGFGMGNCCLQVTFQACSISEARYLYDQLATICPIVMALSAASPFYRGYVSDIDCRWGVISASVDDRTREERGLEPLKNNNYRISKSRYDSIDSYLSKCGEKYNDIDLTIDKEIYEQLLQEGIDHLLAQHVAHLFIRDPLTLFEEKIHLDDANESDHFENIQSTNWQTMRFKPPPPNSDIGWRVEFRPMEVQLTDFENSAYVVFVVLLTRVILSYKLDFLIPLSKVDENMKVAQKRDAVLQGMFYFRKDICKGGNAVVDGCGKAQNSTELAAEEYTLMSIDTIINGKEGVFPGLIPILNSYLENMEVDVDTRCSILNYLKLIKKRASGELMTVARWMREFIANHPDYKQDSVITDEMNYSLILKCNQIANELCECPELLGSAFRKVKYSGSKTDSSN
In the case of B2, the binding [4] is reported as “binds”.

B3: HIS-GCLC (protein, UniProt P48506 1-637)
chain: MGLLSQGSPLSWEETKRHADHVRRHGILQFLHIYHAVKDRHKDVLKWGDEVEYMLVSFDHENKKVRLVLSGEKVLETLQEKGERTNPNHPTLWRPEYGSYMIEGTPGQPYGGTMSEFNTVEANMRKRRKEATSILEENQALCTITSFPRLGCPGFTLPEVKPNPVEGGASKSLFFPDEAINKHPRFSTLTRNIRHRRGEKVVINVPIFKDKNTPSPFIETFTEDDEASRASKPDHIYMDAMGFGMGNCCLQVTFQACSISEARYLYDQLATICPIVMALSAASPFYRGYVSDIDCRWGVISASVDDRTREERGLEPLKNNNYRISKSRYDSIDSYLSKCGEKYNDIDLTIDKEIYEQLLQEGIDHLLAQHVAHLFIRDPLTLFEEKIHLDDANESDHFENIQSTNWQTMRFKPPPPNSDIGWRVEFRPMEVQLTDFENSAYVVFVVLLTRVILSYKLDFLIPLSKVDENMKVAQKRDAVLQGMFYFRKDICKGGNAVVDGCGKAQNSTELAAEEYTLMSIDTIINGKEGVFPGLIPILNSYLENMEVDVDTRCSILNYLKLIKKRASGELMTVARWMREFIANHPDYKQDSVITDEMNYSLILKCNQIANELCECPELLGSAFRKVKYSGSKTDSSN
In the case of B3, the binding [5] is reported as “binds”.

B4: glutamate-cysteine ligase modifier subunit (GCLM) (protein, UniProt P48507 1-274)
chain: MGTDSRAAKALLARARTLHLQTGNLLNWGRLRKKCPSTHSEELHDCIQKTLNEWSSQINPDLVREFPDVLECTVSHAVEKINPDEREEMKVSAKLFIVESNSSSSTRSAVDMACSVLGVAQLDSVIIASPPIEDGVNLSLEHLQPYWEELENLVQSKKIVAIGTSDLDKTQLEQLYQWAQVKPNSNQVNLASCCVMPPDLTAFAKQFDIQLLTHNDPKELLSEASFQEALQESIPDIQAHEWVPLWLLRYSVIVKSRGIIKSKGYILQAKRRGS
For B4, the binding [6] was “binds”.
